For this series, the system named is AtrERF001 (Akebia trifoliata). As to the kind of experiment: EMSA. To be noted: text mentions a 'site mutation assay' but no mutant probe is described; LightShift Chemiluminescent EMSA kit per manufacturer; unlabeled competitor 10x, 50x; native PAGE; pH and temperature not stated; recombinant protein; label: 5' biotin. In general terms: A gel shift assay detects complexes by their altered migration in electrophoresis.

The exact form of at least one protein or probe is not confirmed. Negatives hold for the conditions tested.

As to “TTCCAAGCCGACATGGCCGA (double strand) [AtrPE promoter probe (FP2/RP2)]”, the binding result is “no binding”. As to “AATTTGAGTCGGCATTTTTT (double strand) [AtrACO1 promoter probe (FP1/RP1)]”, the binding result is on record as “no binding”.
